US20260139057A1 (University of California, published 2026)
No constants are given. Whether binding was seen depends on the method and setting. A result given as binding can be weak or reduced; the word gives no strength.

Molecular target: recombinant human integrin αvβ8 ectodomain (human)
Experiment: cryo-EM of the complex

B1: ADWA 11 2.4 Fab (Fab, V domains shown)
VH: EVQLVESGGGLVQPGGSLRLSCAASGFNIKDYYMNWVRQAPGKGLEWVGWIDPDQGNTIYEPKFQGRFTISADTSKNSAYLQMNSLRAEDTAVYYCARRLLMDYWGQGTLVTVSS
VL: DIQMTQSPSSLSASVGDRVTITCRSTKSLSHFNGNTYLFWYQQKPGKAPKRLIYYMSSLASGVPSRFSGSGSGTDFTLTISSLQPEDFATYYCQQSLEYPFTFGGGTKVEIKR
For B1, the binding was “binds”.
